Data reported in publication doi:10.1101/2021.12.06.471412.
These are yes or no findings as the source states them, for the method shown. For some assays here: Binding seen in cells or lysates may run through a third protein. Some binding calls cover weakened binding; strength is not graded here. Tags and fused reporters may be left off the sequences shown.

Sequences of proteins named here, by UniProt entry; tags and fusion partners are left off. Residues count along the entry.
UniProt P30405, 30-207: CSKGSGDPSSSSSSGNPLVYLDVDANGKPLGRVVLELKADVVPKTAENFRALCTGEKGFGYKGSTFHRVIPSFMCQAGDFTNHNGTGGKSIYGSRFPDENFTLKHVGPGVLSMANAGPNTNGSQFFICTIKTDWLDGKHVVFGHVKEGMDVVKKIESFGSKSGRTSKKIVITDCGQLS

Experiments:
[1] = target: T1, oligomycin sensitivity-conferring protein (OSCP) subunit of F-ATP synthase (human (endogenous in U87)) (UniProt P48047); assay: co-IP
T1 sequence: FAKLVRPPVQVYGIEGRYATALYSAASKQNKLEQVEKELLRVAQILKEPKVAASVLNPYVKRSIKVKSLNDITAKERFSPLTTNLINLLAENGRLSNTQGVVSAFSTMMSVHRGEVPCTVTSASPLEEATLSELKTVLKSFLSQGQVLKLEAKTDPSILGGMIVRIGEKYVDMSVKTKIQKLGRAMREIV

[2] = target: T1, oligomycin sensitivity-conferring protein (OSCP) subunit of F-ATP synthase (human (endogenous in U87)); assay: SEC

Substance: peptidyl-prolyl cis-trans isomerase cyclophilin D (CyPD) (from UniProt P30405 30-207)
- binding [1]: binds
- binding [2]: binds
